# Test results taken from doi:10.1101/2024.10.12.24315363.
# The chains behind the UniProt entries cited, without tags or fusion partners.
# UniProt P47756: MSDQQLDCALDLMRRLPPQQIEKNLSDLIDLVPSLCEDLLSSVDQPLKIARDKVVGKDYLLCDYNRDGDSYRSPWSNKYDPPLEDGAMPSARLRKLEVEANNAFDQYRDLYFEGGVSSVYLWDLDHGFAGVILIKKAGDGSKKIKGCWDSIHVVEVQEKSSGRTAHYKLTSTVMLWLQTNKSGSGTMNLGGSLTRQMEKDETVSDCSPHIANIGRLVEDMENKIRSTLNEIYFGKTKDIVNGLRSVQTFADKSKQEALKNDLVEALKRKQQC
# UniProt Q16643: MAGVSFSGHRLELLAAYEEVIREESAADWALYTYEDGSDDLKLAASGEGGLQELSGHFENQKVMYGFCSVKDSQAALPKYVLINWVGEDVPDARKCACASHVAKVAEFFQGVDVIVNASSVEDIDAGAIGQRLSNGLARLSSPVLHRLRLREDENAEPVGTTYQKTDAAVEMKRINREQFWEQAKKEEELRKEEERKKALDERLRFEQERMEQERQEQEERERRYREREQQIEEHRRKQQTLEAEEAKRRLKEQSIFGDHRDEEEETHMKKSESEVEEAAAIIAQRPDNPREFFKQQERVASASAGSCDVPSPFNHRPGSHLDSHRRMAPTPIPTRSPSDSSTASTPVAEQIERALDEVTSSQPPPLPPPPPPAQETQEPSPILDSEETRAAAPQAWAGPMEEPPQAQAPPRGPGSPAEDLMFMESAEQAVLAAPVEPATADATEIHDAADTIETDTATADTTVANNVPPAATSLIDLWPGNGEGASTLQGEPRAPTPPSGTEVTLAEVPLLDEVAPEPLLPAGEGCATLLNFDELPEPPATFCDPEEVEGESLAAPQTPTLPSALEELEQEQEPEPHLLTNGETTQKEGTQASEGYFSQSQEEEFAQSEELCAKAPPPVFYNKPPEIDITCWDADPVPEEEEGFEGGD
# UniProt P35579: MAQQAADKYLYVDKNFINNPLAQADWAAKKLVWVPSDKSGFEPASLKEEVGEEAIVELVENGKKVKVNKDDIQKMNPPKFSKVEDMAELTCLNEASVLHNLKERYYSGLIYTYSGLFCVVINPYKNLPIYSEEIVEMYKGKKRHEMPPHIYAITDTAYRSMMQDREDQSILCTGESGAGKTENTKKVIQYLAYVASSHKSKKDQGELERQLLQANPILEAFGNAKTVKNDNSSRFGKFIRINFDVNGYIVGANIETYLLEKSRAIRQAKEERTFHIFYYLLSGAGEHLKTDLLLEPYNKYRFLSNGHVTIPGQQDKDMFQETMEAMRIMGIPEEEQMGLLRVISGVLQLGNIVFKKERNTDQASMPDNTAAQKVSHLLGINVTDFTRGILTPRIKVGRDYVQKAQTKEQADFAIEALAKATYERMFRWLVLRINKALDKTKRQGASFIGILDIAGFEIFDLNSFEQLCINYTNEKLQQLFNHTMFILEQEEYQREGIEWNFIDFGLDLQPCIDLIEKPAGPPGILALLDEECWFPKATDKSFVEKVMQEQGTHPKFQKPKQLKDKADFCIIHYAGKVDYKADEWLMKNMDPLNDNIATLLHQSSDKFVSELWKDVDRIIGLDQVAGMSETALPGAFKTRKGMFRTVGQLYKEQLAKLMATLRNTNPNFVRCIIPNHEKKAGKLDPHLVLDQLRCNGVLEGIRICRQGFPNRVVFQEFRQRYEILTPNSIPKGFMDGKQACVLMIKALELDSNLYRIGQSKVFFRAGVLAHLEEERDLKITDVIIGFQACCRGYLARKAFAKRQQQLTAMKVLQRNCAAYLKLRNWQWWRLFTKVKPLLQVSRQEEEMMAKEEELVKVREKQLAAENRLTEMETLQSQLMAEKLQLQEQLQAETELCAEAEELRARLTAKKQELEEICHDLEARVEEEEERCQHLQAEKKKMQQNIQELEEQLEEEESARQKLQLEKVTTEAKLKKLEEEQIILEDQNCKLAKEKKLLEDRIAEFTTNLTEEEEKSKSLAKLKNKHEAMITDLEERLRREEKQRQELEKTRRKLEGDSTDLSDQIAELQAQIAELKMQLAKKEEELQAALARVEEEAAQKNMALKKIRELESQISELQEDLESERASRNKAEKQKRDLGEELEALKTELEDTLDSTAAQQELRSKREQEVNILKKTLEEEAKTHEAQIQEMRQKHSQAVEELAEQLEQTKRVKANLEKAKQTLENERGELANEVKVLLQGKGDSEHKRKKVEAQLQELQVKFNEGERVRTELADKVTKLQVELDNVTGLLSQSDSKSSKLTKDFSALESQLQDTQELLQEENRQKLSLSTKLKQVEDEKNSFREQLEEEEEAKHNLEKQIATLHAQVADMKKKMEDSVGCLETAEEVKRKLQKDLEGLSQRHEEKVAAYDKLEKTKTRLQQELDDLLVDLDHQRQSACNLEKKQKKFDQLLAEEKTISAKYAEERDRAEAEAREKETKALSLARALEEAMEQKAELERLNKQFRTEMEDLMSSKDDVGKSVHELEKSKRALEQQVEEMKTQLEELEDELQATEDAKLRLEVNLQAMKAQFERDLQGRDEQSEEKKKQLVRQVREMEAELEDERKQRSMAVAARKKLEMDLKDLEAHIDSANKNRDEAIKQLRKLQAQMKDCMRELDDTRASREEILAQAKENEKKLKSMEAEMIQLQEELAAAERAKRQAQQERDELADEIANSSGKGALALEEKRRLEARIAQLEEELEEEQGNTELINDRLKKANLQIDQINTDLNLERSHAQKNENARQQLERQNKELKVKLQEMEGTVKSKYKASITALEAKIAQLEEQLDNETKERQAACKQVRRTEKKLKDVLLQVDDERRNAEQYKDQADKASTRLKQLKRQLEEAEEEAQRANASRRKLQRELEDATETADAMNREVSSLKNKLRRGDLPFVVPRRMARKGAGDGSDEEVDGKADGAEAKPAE
# UniProt P35580: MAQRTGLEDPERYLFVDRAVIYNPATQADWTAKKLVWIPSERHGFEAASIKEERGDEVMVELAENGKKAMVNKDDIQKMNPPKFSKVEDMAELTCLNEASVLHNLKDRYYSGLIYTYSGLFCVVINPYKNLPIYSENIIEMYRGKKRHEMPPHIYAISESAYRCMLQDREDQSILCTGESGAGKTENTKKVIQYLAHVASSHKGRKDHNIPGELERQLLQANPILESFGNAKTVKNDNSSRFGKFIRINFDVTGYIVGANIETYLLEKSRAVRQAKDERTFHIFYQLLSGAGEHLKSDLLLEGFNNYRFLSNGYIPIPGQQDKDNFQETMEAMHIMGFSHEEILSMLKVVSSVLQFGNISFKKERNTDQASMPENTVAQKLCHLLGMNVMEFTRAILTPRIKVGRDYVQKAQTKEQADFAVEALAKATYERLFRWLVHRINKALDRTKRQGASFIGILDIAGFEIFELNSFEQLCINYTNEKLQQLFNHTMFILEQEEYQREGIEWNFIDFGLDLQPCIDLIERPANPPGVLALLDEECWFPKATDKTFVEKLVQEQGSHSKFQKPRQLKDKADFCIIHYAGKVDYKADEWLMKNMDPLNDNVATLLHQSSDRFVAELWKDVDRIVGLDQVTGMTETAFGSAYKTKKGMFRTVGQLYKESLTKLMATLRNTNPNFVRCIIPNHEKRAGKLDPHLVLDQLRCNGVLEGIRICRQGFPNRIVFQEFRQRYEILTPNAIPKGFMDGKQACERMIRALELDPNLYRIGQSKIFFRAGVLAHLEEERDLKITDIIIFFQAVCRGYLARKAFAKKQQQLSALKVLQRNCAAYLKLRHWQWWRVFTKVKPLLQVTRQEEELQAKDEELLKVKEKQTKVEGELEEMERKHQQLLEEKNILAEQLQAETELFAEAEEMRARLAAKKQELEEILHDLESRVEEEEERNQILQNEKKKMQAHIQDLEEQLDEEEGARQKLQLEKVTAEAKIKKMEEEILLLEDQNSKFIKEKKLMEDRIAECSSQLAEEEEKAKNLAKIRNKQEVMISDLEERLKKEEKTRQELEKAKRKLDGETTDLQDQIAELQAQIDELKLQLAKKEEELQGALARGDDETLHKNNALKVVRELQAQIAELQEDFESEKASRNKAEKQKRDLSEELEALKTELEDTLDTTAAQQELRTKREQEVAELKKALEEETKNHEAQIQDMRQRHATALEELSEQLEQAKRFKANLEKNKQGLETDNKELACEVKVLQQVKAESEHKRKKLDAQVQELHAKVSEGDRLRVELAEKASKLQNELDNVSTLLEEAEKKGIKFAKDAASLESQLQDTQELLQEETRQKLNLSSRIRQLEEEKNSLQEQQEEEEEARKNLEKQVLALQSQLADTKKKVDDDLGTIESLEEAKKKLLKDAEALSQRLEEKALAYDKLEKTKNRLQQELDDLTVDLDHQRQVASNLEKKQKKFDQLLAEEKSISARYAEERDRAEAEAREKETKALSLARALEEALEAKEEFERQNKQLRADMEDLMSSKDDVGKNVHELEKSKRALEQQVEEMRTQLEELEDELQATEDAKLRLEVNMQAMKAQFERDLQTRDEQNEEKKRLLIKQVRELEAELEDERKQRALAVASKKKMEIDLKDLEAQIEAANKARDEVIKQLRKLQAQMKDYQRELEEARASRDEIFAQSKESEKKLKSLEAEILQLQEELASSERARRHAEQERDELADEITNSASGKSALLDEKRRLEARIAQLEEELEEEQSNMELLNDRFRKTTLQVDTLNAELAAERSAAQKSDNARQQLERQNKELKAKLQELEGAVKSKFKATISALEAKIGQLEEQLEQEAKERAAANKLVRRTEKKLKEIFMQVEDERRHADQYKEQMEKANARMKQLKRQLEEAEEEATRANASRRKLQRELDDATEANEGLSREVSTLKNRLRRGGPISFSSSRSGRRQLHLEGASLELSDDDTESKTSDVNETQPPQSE
# UniProt P60660: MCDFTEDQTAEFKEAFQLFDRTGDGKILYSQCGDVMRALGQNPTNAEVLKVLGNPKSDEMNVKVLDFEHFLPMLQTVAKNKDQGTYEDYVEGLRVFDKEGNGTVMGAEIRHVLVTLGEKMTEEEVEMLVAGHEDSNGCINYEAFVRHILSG
# UniProt P14649: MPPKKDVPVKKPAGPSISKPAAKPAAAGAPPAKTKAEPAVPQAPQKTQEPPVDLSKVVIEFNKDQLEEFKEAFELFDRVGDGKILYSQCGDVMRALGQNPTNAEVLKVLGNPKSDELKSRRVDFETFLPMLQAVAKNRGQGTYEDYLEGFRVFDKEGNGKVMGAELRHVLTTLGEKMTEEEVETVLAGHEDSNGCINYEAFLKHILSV
# UniProt O14950: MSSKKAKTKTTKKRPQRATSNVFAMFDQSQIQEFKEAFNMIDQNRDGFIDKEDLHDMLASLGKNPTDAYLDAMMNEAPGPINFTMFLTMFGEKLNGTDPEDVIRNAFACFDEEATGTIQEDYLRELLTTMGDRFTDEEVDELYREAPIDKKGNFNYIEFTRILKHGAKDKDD
# UniProt P09493: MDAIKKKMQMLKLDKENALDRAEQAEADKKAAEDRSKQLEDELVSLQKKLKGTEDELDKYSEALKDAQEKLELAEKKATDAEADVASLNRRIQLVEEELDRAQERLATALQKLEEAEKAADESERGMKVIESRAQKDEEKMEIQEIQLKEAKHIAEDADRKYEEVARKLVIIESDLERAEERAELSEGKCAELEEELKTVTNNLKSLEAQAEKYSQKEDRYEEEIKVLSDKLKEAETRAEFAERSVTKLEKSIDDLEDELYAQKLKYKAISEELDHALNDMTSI
# Target: T1, IVNS1ABP, wild type (endogenous in isogenic control NPCs) (human (endogenous in iPSC-derived NPCs)) (UniProt Q9Y6Y0)
# T1 sequence: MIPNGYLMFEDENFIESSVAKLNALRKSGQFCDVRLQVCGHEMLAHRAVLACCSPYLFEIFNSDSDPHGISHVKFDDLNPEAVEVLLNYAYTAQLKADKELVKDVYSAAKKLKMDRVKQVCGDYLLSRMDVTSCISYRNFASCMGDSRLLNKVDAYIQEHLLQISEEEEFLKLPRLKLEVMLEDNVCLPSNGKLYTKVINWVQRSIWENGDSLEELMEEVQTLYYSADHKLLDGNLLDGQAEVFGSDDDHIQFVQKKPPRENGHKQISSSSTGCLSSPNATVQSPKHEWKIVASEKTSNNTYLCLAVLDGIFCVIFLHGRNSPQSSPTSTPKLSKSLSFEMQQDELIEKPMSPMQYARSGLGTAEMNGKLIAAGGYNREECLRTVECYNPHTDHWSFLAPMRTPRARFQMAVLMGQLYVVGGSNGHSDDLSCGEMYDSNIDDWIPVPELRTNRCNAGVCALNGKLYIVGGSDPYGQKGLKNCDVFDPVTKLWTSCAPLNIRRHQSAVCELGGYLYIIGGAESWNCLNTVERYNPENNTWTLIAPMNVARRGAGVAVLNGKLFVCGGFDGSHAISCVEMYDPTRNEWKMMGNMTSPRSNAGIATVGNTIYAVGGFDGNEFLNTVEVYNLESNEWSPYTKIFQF
# Experiment: affinity purification with mass spectrometry
row,Substance,binding
1,CAPZB (from UniProt P47756 1-272),binds
2,DBN1 (Drebrin1) (from UniProt Q16643 1-649),binds
3,MYH9 (from UniProt P35579 1-1960),binds
4,MYH10 (from UniProt P35580 1-1976),binds
5,MYL6 (from UniProt P60660 1-151),binds
6,MYL6B (from UniProt P14649 1-208),binds
7,MYL12B (from UniProt O14950 1-172),binds
8,TPM1 (from UniProt P09493 1-284),binds

# No constants are given. Whether binding was seen depends on the method and setting. Binding seen in cells or lysates may run through a third protein. A yes stands for co-enrichment or nearness to the bait. Other partners may have been found.
